# In PubChem BioAssay AID2685 (National Center for Advancing Translational Sciences (NCATS), 2010):
# In all, about 320,000 compounds went through this assay and about 2,100 (0.66%) were called active. The inconclusive results got no clear call from the source; some entries with a clear call stand among them for comparison. The call rests on the fitted dose curve; in most records, active means well fitted inhibition curve with a large enough effect in the signal ratio, with a control signal flat (not every such curve was filed as active); inconclusive means small, poorly fitted or top-dose-only effect, or effect the other way, or a change in a side signal; inactive means flat fitted curve, though single readings scatter; the % refers to the signal ratio. Potencies of inconclusive entries are doubtful fits and often do not repeat.
# Assay: qHTS Assay for Lipid Storage Modulators in Drosophila S3 Cells
# Settings: BODIPY lipid droplet fluorescence, 18-24 h, cells fed with added oleic acid; lipid storage change, negative = inhibition: at 46.1 µM (top of the series) unless noted
# Outline: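 Laser-scanning cytometry quantifies lipid droplet accumulation (500–530 nm total intensity; droplet/cell object ratio) in oleic acid-fed (400 uM added) Drosophila S3 cells treated with a concentration series. 20 uM Triacsin C defined 100% inhibition.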
# On the % scale 0 is the no-effect control and ±100 the full control effect; potency means the concentration at half of the fitted maximal effect.
SMILES,"lipid storage change, negative = inhibition",Potency
C=CCn1c(=N)c(C(=O)NCCCOC)cc2c(=O)n3cc(C)ccc3nc21,inconclusive: 31.3%,
O=C(N/N=C/c1ccncc1)c1ccc2c(c1)OCO2,inactive: 5.26%,
Cc1cccc(NC(=O)CN2CCN(C(=O)CNC(=O)Cc3cccc4ccccc34)CC2)c1C,,"inconclusive: 1.84 µM [falling, partial curve, poor fit]"
O=C(NCCN1C(=O)S/C(=C\c2ccc(Cl)cc2Cl)C1=O)C1=COCCO1,,active: 20.6 µM
CCOC(=O)c1c(NC(=O)CSc2nnc(CNC(=O)c3ccco3)n2C)sc2c1CCC2,inconclusive: 74.7%,
NC(=O)c1csc(-c2ccncc2)n1,inconclusive: 48.5%,
CCc1ccc(OCCCC(=O)NCc2ccco2)cc1,,"inconclusive: 20.6 µM [activator, single point]"
Cc1cccc(N=C2NC(=O)/C(=C/c3cccnc3)S2)c1,inconclusive: 17.3%,
Cc1ccc(S(=O)(=O)NNC(=O)c2ccc(O)cc2)cc1,,"inconclusive: 6.51 µM [rising, single point]"
Fc1cccc(Cl)c1CNn1cn[nH]c1=S,inconclusive: -62.6% [at 0.369 µM],
CCOC(=O)CSc1nnc2c3ccccc3n(CC)c2n1,inconclusive: -60.9%,
O=C(Nc1cccnc1)c1ccc(F)c(S(=O)(=O)N2CCOCC2)c1,,"inconclusive: 2.59 µM [falling, single point]"
COc1ccc(N2CCN(Cc3cc(=O)c(OCC(=O)Nc4ccccc4)co3)CC2)cc1,,"inconclusive: 0.366 µM [falling, single point]"
Cc1ccc(N(CC(=O)NC(C)C)C(=O)CCC(=O)Nc2nccs2)c(C)c1,,"inconclusive: 6.51 µM [activator, single point]"
Cc1ccc(O)c(C(=O)CC(=O)c2ccc(C(C)(C)C)cc2)c1,inconclusive: -25.4%,
Cc1c(C)c2cc(Cl)c(OCC(=O)N3CCN(c4ccc(F)cc4)CC3)cc2oc1=O,,"inconclusive: 5.17 µM [activator, single point]"
COc1ccc(/C=N/NC(=O)Nc2cccc3nsnc23)c(OC)c1,,"inconclusive: 1.64 µM [activator, partial curve]"
CCS(=O)(=O)N1Cc2ccccc2CC1C(=O)N(C)CC(=O)Nc1ccc(OC)cc1 (stereo unspecified),inconclusive: 15.1%,
O=C(/C=C/c1ccco1)NC(=S)Nc1ccccc1Br,inconclusive: -35.6%,
CC(=O)Oc1ccc(N2C(=O)C3C4C=CC(C5CC45)C3C2=O)cc1[N+](=O)[O-] (stereo unspecified),,"inconclusive: 0.0052 µM [falling, full curve]"
Cc1ccc(NC(=S)N=Nc2c(O)n(C)c3ccc(S(=O)(=O)N4CCOCC4)cc23)cc1,,"inconclusive: 8.2 µM [falling, partial curve]"
CC(=O)C1=C(NC(=O)c2ccc(F)cc2)CC2C1C2(C)C (stereo unspecified),,"inconclusive: 2.31 µM [falling, single point]"
COc1cc2[nH]c(-c3cccc(F)c3)cc(=O)c2cc1OC,inconclusive: 15.7%,

# 2 compounds drawn at random from the list so far, as already listed:
SMILES,"lipid storage change, negative = inhibition",Potency
Cc1cccc(N=C2NC(=O)/C(=C/c3cccnc3)S2)c1,inconclusive: 17.3%,
CCOC(=O)c1c(NC(=O)CSc2nnc(CNC(=O)c3ccco3)n2C)sc2c1CCC2,inconclusive: 74.7%,

# (list continues)

SMILES,"lipid storage change, negative = inhibition",Potency
Cc1cc(NC(=O)c2ccc(Cn3cc([N+](=O)[O-])cn3)o2)no1,,"inconclusive: 20.6 µM [activator, single point]"
Cc1cc(C(=O)CSc2ccc(F)cc2)cc(C)c1O,inconclusive: -2.28%,
OCC[C@@H]1C[C@@H](O)[C@H](O)[C@@]2(CCCc3ccccc3O2)O1,inconclusive: 20.3%,
O=C(O)C1CCN(S(=O)(=O)c2ccc(N3CCC(O)CC3)c([N+](=O)[O-])c2)CC1,,"inconclusive: 0.184 µM [falling, partial curve, poor fit]"
CC(C)c1ccc(/C=N/NC(=O)CC(=O)NCc2ccccc2)cc1,inconclusive: -3.95%,
Cc1cc(C)c(S(=O)(=O)Nc2cnc3ccccc3c2)c(C)c1,inconclusive: -17%,
O=C(O)CCSc1nnc(COc2cccc3cccnc23)n1-c1ccccc1,inconclusive: -35.5%,
CCC1=C2CC[C@H]3C(=O)N(c4ccccc4)C(=O)[C@H]3[C@H]2[C@@]2(C)C(=NCc3ccccc3)OC(=O)N2C1=O,inconclusive: -15%,
CCc1nnc(NC(=O)CCC(=O)N2CCN(c3cc(C)ccc3C)CC2)s1,,"inconclusive: 0.146 µM [falling, full curve, poor fit]"
Cc1ccc(S(=O)(=O)NCCc2cc3ccc(C)cc3[nH]c2=O)cc1,,"inconclusive: 16.4 µM [falling, single point]"
COc1cc(/C=N/NC(=O)COc2ccc(Cl)cc2)ccc1OS(=O)(=O)c1ccc(C)cc1,,"inconclusive: 0.92 µM [activator, full curve, poor fit]"
Cc1ccc2[nH]c(=O)c(CNS(=O)(=O)c3ccccc3)c(-c3ccccc3)c2c1,,"inconclusive: 1.46 µM [activator, partial curve, poor fit]"
COc1cc(/C=N/O)cc(Br)c1OCc1cccc(Cl)c1,,"inconclusive: 1.84 µM [cytotoxic, partial curve]"
O=C(COC(=O)c1cc(=O)[nH]c2ccccc12)NCc1ccc(Cl)cc1,,"inconclusive: 0.0052 µM [falling, full curve, poor fit]"
Cc1ccc(-c2n[nH]c(=O)c3ccccc23)cc1S(=O)(=O)N(C)CCO,inconclusive: 55.5%,
Cc1ccc(C2=NCCn3c2c2ccc(C(F)(F)F)cc2[n+]3[O-])cc1,inconclusive: 9.36%,
CCn1c(-c2ccc(N)cc2)nc2ccccc21,inconclusive: -18.5%,
COc1cc(C(=O)NCCOc2ccccc2C)cc(OC)c1OC,inconclusive: -50%,
Cc1ccc(OCC(=O)NCc2ccco2)cc1C,inconclusive: 55.2%,
CN1CCN(c2nc(C(N)=O)cc(-c3ccccc3)n2)CC1,inactive: 5.39%,
Cc1cc(C(=O)NCCCN2CC(C)CC(C)C2)n(-c2ccccc2)n1 (stereo unspecified),inconclusive: 22.1%,
O=C(Cc1ccccc1)NNc1ccc2ccccc2c1,inconclusive: 3.48%,
CCCN1CCN(S(=O)(=O)c2cn(C)nc2C)CC1,,"inconclusive: 29.1 µM [activator, single point]"
